The other results are listed elsewhere or left out.
Columns and labels:
Test in all cases: probe-labelled cysteine peptide fold change vs DMSO (competition) (log2 fold change); higher = less target engagement (more negative = stronger competition)
Settings in all cases: THP-1, incubation time: 4 h
[1] = molecular target: CEP41_Q9BYV8_187_DRDSYQQCHIVGAYSYPIATLSR (UniProt Q9BYV8)
[2] = molecular target: CEP97_Q8IW35_599_MQEHIVCLTDEIR (UniProt Q8IW35)
[3] = molecular target: CEP97_Q8IW35_599_MQEHIVCLTDEIRR (UniProt Q8IW35)
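Further: competitive chemoproteomic profiling in live THP-1 cells with an iodoacetamide desthiobiotin (IA-DTB) probe, comparing probe-labelled peptide intensities in compound-treated cells against DMSO-treated controls.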

Protein sequences, listed by entry. Tags and fused reporters are not part of them. Lines headed by an entry give the natural chain unless they say otherwise; changes in a name come on top.
UniProt Q9BYV8: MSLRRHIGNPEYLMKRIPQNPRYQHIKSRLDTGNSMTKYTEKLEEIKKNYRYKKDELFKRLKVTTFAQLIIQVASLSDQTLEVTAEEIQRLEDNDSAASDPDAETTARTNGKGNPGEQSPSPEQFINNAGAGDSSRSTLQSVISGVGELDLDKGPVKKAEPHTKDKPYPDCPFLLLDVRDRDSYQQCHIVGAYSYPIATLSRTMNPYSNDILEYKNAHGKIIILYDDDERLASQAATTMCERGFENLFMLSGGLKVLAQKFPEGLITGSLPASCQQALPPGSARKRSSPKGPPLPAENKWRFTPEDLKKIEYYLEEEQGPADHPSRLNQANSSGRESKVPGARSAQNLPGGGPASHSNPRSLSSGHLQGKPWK
UniProt Q8IW35: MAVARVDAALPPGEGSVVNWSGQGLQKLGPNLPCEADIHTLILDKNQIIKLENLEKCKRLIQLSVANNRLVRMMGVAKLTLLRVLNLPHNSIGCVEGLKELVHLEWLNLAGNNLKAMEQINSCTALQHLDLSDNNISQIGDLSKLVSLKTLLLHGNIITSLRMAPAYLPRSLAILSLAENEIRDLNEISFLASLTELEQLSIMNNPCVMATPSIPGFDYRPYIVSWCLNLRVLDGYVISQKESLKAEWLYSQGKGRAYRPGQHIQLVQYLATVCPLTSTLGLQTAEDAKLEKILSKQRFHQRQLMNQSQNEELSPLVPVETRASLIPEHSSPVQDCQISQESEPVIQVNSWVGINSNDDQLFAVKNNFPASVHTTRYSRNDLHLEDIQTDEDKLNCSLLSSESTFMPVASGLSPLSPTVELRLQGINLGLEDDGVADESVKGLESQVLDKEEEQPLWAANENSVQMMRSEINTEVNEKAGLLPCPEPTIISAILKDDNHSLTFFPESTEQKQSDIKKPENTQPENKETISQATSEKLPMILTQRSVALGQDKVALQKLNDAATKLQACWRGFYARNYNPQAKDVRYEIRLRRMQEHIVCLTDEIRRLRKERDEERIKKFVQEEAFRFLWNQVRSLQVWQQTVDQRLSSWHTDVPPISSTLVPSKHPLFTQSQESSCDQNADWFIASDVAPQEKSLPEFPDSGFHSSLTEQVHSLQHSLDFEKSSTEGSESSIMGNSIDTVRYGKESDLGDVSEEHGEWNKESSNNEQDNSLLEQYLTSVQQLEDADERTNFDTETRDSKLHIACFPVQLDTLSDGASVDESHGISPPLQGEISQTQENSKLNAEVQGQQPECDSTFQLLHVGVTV

CC1Cc2ccccc2N1C(=O)C1CCCN(C(=O)CCl)C1 (mixture of isomers) [TRIM25 ligand 11 (diastereomer mixture)]
probe-labelled cysteine peptide fold change ([1]; 10 µM): -0.0441 | probe-labelled cysteine peptide fold change ([1]; 50 µM): 0.152 | probe-labelled cysteine peptide fold change ([2]; 10 µM): 0.146 | probe-labelled cysteine peptide fold change ([2]; 50 µM): -0.0961 | probe-labelled cysteine peptide fold change ([3]; 10 µM): -0.287 | probe-labelled cysteine peptide fold change ([3]; 50 µM): -0.188

From the supplement of paper PMC12067093, “Discovery and optimisation of a covalent ligand for TRIM25 and its application to targeted protein ubiquitination” (Chemical Science, 2025)
